Measured values published in patent US8242058B2, “Reagents and methods for appending functional groups to proteins” (Wisconsin Alumni Research Foundation, priority 2006, dated 2012).

B1: wild-type RNase A: bovine pancreatic ribonuclease (RNase A), unmodified wild-type, Sigma Chemical (protein, UniProt P61823 27-150, looked up)
Ribonuclease pancreatic: KETAAAKFERQHMDSSTSAASSSNYCNQMMKSRNLTKDRCKPVNTFVHESLADVQAVCSQKNVACKNGQTNCYQSYSTMSITDCRETGSSKYPNCAYKTTQANKHIIVACEGNPYVPVHFDASV

How the values were obtained:
[1] = Huisgen 1,3-dipolar cycloaddition with alkynyl fluorescein 10, SDS-PAGE fluorescence imaging; conditions: Cu(I) catalyst, polytriazole ligand
[2] = Immobilization on phosphinothioester-displaying chips by Staudinger ligation, immunofluorescence detection; conditions: 10 μM in 5% DMF/water

| Molecule | fluorescence of the protein after cycloaddition [1] | immobilization on phosphinothioester chips [2] |
| --- | --- | --- |
| Met(−1)RNase A-Gly-NHNHCH2C(O)NHCH2CH2N3 [azido-RNase A] | fluorescent | immobilized |
| B1 | not fluorescent | did not result in any detectable RNase A immobilization |
